Experimental data reported in paper PMC5996148.
Some of the results follow.

Tests used:
Assay in all cases: protein microarray (ProtoArray v5.0), streptavidin-Alexa Fluor 647
Settings in all cases: 3'-biotin; 20 mM Tris (pH 7.5), 5 mM MgCl2, 100 mM KCl, 0.1% Tween-20, A/T-rich and random oligonucleotide blockers; temperature not stated; high values mean tight binding
LOC401037 (human) = tested on: LOC401037 (human)
LOC401169 (human) = tested on: LOC401169 (human)
LOC401270 (human) = tested on: LOC401270 (human)
LOC401464 (human) = tested on: LOC401464 (human)
LOC401607 (human) = tested on: LOC401607 (human)
LOC442582 (human) = tested on: LOC442582 (human)
LOC51233 (human) = tested on: LOC51233 (human)
LOC51252 (human) = tested on: LOC51252 (human)
LOC541471 (human) = tested on: LOC541471 (human)
LOC541473 (human) = tested on: LOC541473 (human)
LOC554203 (human) = tested on: LOC554203 (human)
LOC554207 (human) = tested on: LOC554207 (human)
LOC57228 (human) = tested on: LOC57228 (human)
LOC645676 (human) = tested on: LOC645676 (human)
LOC90925 (human) = tested on: LOC90925 (human)
LOC94431 (human) = tested on: LOC94431 (human)
LOH12CR1 (human) = tested on: LOH12CR1 (human)
LONRF2 (human) = tested on: LONRF2 (human)
LPAL2 (human) = tested on: LPAL2 (human)
LPXN (human) = tested on: LPXN (human)

Sequence: GGGAGGCTGAGGCAGG [G4-1 biotinylated (PQS2)]
- binding signal (LOC401037 (human)): -0.294 z-score
- binding signal (LOC401169 (human)): -0.328 z-score
- binding signal (LOC401270 (human)): -0.307 z-score
- binding signal (LOC401464 (human)): -0.259 z-score
- binding signal (LOC401607 (human)): -0.331 z-score
- binding signal (LOC442582 (human)): -0.331 z-score
- binding signal (LOC51233 (human)): -0.327 z-score
- binding signal (LOC51252 (human)): -0.334 z-score
- binding signal (LOC541471 (human)): -0.349 z-score
- binding signal (LOC541473 (human)): -0.308 z-score
- binding signal (LOC554203 (human)): -0.359 z-score
- binding signal (LOC554207 (human)): -0.326 z-score
- binding signal (LOC57228 (human)): 3.31 z-score
- binding signal (LOC645676 (human)): -0.247 z-score
- binding signal (LOC90925 (human)): -0.302 z-score
- binding signal (LOC94431 (human)): -0.322 z-score
- binding signal (LOH12CR1 (human)): -0.343 z-score
- binding signal (LONRF2 (human)): -0.318 z-score
- binding signal (LPAL2 (human)): -0.276 z-score
- binding signal (LPXN (human)): -0.345 z-score
